According to the supplement of paper PMC6411743:
± gives the standard deviation of the averaged measurements. Only a part is listed here, and it is no random draw. Small differences around the control level are noise.

Amino acid sequences for entries named in this document (tags omitted). A change or cut given only in a name is not applied to a line headed by its entry.
UniProt Q96A57: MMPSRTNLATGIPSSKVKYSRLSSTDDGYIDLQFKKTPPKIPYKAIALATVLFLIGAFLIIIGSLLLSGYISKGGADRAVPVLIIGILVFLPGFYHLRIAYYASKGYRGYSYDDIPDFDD
UniProt Q96B26, whole entry: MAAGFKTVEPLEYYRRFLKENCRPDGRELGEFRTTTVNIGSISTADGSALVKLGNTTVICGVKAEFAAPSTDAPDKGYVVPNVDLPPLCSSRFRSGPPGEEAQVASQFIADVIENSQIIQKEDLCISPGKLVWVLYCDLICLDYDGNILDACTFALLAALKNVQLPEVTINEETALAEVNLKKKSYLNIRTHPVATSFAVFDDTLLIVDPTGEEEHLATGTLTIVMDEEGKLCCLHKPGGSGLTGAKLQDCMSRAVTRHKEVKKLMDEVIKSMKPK
UniProt Q8WUY1: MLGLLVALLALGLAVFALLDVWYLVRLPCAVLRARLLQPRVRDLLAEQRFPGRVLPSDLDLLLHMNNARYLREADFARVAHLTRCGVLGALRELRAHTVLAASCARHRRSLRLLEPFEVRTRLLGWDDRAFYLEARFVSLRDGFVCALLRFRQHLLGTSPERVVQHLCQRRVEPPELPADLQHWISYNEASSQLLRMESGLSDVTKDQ
UniProt Q92667: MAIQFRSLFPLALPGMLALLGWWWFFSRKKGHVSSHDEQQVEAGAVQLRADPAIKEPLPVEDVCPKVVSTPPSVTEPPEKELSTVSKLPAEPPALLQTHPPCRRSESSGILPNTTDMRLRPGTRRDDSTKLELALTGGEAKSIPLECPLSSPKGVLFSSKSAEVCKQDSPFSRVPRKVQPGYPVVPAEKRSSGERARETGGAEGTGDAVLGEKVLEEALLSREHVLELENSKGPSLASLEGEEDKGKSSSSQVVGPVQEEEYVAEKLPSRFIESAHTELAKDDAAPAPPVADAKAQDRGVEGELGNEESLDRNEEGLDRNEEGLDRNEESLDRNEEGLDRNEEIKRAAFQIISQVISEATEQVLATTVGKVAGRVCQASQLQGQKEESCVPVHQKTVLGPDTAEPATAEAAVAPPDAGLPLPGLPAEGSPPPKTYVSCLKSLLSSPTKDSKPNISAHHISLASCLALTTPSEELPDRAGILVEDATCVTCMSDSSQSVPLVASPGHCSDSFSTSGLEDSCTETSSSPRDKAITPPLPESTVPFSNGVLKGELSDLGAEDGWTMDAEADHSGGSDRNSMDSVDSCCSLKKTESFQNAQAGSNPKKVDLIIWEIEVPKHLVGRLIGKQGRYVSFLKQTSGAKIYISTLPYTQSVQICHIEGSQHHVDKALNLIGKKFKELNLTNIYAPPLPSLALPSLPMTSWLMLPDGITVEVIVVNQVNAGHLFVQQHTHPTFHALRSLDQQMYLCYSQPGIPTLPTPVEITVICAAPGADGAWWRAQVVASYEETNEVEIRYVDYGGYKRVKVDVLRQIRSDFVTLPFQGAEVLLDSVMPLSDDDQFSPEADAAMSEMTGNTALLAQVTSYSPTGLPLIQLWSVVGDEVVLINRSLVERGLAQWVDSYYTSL
UniProt Q93015: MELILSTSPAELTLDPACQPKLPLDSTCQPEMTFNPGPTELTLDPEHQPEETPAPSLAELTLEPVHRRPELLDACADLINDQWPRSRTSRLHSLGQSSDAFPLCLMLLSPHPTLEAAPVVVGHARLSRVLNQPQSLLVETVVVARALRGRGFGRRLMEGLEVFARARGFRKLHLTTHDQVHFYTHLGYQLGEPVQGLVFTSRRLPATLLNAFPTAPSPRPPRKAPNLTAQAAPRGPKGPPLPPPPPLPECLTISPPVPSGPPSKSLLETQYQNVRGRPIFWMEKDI
UniProt Q92797: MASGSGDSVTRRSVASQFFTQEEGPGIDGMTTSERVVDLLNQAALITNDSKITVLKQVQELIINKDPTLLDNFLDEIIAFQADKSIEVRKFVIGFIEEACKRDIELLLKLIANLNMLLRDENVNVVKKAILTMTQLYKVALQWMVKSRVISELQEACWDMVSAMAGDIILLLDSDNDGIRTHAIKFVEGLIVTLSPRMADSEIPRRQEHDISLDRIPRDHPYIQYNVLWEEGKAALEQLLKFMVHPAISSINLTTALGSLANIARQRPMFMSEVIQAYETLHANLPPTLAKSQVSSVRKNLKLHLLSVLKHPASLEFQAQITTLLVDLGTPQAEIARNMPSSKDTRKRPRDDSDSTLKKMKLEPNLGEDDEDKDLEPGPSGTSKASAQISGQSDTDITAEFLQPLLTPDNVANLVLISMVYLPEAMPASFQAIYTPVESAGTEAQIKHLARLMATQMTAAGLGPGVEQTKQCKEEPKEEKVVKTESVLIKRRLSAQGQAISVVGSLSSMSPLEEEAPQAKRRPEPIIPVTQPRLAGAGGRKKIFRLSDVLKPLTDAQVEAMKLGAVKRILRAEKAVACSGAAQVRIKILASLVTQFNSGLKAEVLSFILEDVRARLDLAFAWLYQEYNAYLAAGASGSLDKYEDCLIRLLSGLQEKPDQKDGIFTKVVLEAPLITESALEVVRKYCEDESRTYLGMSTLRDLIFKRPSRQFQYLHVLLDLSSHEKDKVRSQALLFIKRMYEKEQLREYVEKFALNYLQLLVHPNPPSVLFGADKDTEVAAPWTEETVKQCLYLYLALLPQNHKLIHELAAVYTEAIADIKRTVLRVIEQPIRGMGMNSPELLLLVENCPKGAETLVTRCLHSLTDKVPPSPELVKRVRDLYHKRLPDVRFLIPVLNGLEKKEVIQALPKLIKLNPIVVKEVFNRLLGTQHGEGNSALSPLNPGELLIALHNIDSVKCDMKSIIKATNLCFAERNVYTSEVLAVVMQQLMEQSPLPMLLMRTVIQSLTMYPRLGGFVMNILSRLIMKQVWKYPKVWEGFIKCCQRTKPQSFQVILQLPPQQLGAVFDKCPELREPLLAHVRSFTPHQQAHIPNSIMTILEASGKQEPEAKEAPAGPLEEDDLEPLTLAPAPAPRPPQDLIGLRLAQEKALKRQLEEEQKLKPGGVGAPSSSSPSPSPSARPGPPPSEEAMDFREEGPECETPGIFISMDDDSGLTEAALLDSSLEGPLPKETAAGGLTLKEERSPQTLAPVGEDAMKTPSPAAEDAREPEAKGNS
UniProt Q92696: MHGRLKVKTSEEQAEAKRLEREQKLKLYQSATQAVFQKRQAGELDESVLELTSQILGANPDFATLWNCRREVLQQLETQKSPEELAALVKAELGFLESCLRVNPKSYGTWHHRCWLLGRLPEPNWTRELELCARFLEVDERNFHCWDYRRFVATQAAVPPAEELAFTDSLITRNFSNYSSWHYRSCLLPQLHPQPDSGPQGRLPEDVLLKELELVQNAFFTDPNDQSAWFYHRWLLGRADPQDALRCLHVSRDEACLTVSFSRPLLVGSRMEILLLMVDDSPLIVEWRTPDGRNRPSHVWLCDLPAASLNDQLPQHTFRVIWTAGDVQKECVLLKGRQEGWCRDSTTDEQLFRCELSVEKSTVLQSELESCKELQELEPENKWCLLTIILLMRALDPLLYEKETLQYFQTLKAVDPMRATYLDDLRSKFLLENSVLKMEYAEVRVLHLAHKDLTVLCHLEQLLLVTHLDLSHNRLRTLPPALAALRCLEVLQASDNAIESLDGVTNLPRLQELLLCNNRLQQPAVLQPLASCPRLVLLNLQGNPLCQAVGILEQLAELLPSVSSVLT
UniProt Q92567: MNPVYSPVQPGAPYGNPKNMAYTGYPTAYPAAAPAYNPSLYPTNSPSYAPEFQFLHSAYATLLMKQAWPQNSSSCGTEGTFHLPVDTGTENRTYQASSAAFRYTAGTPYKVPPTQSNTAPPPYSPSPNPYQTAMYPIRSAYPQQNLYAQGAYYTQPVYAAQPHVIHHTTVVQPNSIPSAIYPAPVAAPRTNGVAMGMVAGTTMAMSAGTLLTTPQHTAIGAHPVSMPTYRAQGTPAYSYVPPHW
UniProt Q92784, whole entry: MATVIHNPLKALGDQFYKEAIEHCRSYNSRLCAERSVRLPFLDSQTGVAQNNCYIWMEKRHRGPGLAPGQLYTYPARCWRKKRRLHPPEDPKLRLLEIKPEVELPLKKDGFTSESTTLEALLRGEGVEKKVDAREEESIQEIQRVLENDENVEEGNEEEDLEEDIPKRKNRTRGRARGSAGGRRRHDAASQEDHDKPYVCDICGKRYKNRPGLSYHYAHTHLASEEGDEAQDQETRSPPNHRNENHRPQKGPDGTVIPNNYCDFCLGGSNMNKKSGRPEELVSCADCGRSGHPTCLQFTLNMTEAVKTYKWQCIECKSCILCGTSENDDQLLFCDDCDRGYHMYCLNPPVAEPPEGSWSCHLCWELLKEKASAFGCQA
UniProt Q96B96: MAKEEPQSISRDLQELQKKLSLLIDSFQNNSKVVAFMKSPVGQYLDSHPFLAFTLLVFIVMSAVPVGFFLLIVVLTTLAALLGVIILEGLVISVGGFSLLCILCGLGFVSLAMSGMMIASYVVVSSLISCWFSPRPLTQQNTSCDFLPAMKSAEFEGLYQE
UniProt Q92820: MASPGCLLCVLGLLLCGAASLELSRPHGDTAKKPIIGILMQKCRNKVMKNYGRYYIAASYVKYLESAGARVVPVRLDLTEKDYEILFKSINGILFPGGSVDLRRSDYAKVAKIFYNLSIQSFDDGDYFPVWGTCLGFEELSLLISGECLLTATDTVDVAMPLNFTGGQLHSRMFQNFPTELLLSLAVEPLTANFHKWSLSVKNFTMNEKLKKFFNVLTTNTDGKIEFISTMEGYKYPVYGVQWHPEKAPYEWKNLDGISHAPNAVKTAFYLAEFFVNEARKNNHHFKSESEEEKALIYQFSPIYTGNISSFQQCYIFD
UniProt Q8TBE9: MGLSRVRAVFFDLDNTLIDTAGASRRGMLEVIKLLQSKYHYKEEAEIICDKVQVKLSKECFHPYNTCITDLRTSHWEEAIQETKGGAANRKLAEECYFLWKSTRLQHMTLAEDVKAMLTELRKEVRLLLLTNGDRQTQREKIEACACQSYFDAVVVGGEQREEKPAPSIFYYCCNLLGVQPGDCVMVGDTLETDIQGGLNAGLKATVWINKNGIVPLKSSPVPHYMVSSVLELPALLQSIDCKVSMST
UniProt Q96AZ6: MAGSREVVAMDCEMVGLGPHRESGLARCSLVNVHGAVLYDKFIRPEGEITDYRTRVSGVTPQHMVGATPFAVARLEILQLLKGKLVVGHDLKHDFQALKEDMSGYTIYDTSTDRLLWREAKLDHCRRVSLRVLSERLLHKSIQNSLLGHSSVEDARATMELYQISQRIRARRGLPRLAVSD
UniProt Q8WVZ9: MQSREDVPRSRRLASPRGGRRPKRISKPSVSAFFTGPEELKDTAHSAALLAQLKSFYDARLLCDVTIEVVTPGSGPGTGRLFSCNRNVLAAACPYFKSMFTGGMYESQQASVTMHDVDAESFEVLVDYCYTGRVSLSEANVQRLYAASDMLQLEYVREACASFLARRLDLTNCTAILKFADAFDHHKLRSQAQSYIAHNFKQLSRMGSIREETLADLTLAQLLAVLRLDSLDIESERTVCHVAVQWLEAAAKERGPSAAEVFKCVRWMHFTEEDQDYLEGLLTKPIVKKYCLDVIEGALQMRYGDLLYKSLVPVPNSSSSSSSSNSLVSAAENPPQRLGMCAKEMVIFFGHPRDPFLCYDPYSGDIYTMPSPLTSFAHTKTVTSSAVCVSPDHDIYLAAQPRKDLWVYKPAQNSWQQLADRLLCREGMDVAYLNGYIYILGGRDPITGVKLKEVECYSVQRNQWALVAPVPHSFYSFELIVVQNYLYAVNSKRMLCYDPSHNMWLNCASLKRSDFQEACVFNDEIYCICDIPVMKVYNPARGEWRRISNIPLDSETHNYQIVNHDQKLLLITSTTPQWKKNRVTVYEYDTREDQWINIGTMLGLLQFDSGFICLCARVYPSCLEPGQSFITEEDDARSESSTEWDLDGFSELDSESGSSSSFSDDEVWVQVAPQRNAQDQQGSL
UniProt Q92615, whole entry: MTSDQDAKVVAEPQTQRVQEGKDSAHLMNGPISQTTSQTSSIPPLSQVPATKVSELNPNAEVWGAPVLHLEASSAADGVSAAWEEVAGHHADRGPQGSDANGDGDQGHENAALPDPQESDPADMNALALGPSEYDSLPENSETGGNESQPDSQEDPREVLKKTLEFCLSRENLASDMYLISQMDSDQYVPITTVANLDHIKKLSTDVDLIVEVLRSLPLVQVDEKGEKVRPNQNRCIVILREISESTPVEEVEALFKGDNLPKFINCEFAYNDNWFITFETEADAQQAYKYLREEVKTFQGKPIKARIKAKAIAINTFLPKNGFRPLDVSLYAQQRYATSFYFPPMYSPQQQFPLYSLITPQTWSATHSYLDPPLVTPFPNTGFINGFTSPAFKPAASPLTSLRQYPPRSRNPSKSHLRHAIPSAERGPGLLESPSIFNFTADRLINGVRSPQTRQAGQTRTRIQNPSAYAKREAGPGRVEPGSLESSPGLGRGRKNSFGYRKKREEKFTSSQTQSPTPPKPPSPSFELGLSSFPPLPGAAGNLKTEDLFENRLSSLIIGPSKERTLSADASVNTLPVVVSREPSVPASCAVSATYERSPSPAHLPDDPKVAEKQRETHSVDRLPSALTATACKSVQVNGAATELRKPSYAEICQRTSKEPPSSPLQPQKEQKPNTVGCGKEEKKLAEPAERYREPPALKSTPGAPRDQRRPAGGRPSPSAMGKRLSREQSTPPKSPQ

Compound: Nc1ncnc2c1ncn2[C@@H]1O[C@H](COP(=O)(O)OP(=O)(O)OP(=O)(O)O)[C@@H](O)[C@H]1O [adenosine triphosphate]
Assay: NP40-soluble protein abundance relative to vehicle (solubility fold change) (ratio); higher = more soluble protein in presence of ATP
Method in brief: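 Values are fold changes against the detergent-processed vehicle, based on vsn-normalised intensities. Jurkat crude lysate was treated at eight concentrations from 0.1 to 10 mM (10 min at room temperature, then 3 min at 37 °C), solubilised with 0.8% NP40 and benzonase, ultracentrifuged and analysed by TMT-labelled LC-MS/MS over three independent experiments.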

Target	NP40-soluble protein abundance (concentration: 0.1mM)	NP40-soluble protein abundance (concentration: 0.5mM)
UniProt Q8WZA0 and related entries	0.883 ± 0.11	0.855 ± 0.14
RTF1 (UniProt Q92541)	0.989 ± 0.011	0.968 ± 0.062
UniProt Q92973 and related entries	0.987 ± 0.032	0.967 ± 0.019
UniProt Q96A57 and related entries	0.961 ± 0.02	0.846 ± 0.076
UniProt Q92734 and related entries	0.931 ± 0.046	0.914 ± 0.042
DOCK2 (UniProt Q92608)	1.05 ± 0.07	1.16 ± 0.068
TMEM263 (UniProt Q8WUH6)	0.919 ± 0.073	0.916 ± 0.095
UniProt Q96B01 and related entries	0.95 ± 0.064	0.991 ± 0.075
UniProt Q8TDR0 and related entries	1.02 ± 0.047	1 ± 0.053
UniProt Q969H6 and related entries	1 ± 0.062	0.953 ± 0.032
UniProt Q92574 and related entries	1.01 ± 0.039	0.945 ± 0.049
DPF2 (UniProt Q92785)	0.982 ± 0.045	1.02 ± 0.077
UniProt Q8TEP8-3	0.946 ± 0.035	0.946 ± 0.068
UniProt Q92623	0.904 ± 0.14	0.891 ± 0.14
SMG7 (UniProt Q92540)	0.967 ± 0.07	0.967 ± 0.064
RFT1 (UniProt Q96AA3)	0.956 ± 0.019	0.963 ± 0.048
UniProt Q92844 and related entries	0.964 ± 0.043	0.995 ± 0.038
UniProt Q8TDN6	1 ± 0.06	0.988 ± 0.022
UniProt Q96AJ9 and related entries	0.953 ± 0.028	0.914 ± 0.08
UniProt Q92859 and related entries	0.983 ± 0.083	0.962 ± 0.032
EXOSC8 (UniProt Q96B26)	1.05 ± 0.03	1.05 ± 0.038
BCL7C (UniProt Q8WUZ0)	0.995 ± 0.069	0.993 ± 0.051
SORL1 (UniProt Q92673)	0.979 ± 0.021	0.942 ± 0.035
RNF138 (UniProt Q8WVD3)	1.13 ± 0.16	1.04 ± 0.075
UniProt Q8WUY1	0.973 ± 0.021	0.984 ± 0.028
RFK (UniProt Q969G6)	1.04 ± 0.053	1.09 ± 0.099
UniProt Q8WUI4 and related entries	1.02 ± 0.034	1.05 ± 0.073

Target	NP40-soluble protein abundance (concentration: 0.1mM)	NP40-soluble protein abundance (concentration: 0.5mM)
UniProt Q92552 and related entries	0.949 ± 0.06	0.988 ± 0.092
UniProt Q92636 and related entries	1.1 ± 0.062	1.07 ± 0.08
DNAJB14 (UniProt Q8TBM8)	0.954 ± 0.04	0.93 ± 0.05
UniProt Q8WUW1 and related entries	0.888 ± 0.17	0.953 ± 0.21
AKAP1 (UniProt Q92667)	0.996 ± 0.03	1.01 ± 0.029
NEK7 (UniProt Q8TDX7)	1.05 ± 0.031	1.06 ± 0.03
UniProt Q8TBB5 and related entries	1.03 ± 0.06	1.05 ± 0.064
TSR2 (UniProt Q969E8)	0.914 ± 0.051	0.877 ± 0.11
UniProt Q92581-3|Q92581-2	1.06 ± 0.096	1.03 ± 0.018
UniProt Q93015 and related entries	0.9564 ± 0.0078	0.858 ± 0.043
SYMPK (UniProt Q92797)	0.986 ± 0.022	1.01 ± 0.081
CORO2A (UniProt Q92828)	1.11 ± 0.19	0.999 ± 0.018
KIAA1143 (UniProt Q96AT1)	0.919 ± 0.11	0.883 ± 0.048
ALG3 (UniProt Q92685)	1.21 ± 0.22	1.02 ± 0.075
TMEM131 (UniProt Q92545)	0.979 ± 0.11	1.02 ± 0.052
H1FX (UniProt Q92522)	0.897 ± 0.077	0.895 ± 0.087
RABGGTA (UniProt Q92696)	1.06 ± 0.085	1.03 ± 0.076
UniProt Q92567 and related entries	0.892 ± 0.062	0.842 ± 0.13
FAR1 (UniProt Q8WVX9)	1 ± 0.027	1.03 ± 0.08
HSD17B8 (UniProt Q92506)	0.98 ± 0.034	0.994 ± 0.049
UBXN4 (UniProt Q92575)	1.01 ± 0.017	1.02 ± 0.046
PIBF1 (UniProt Q8WXW3)	1.12 ± 0.12	1.004 ± 0.0096
CCDC47 (UniProt Q96A33)	1.03 ± 0.022	1.02 ± 0.04
DPF3 (UniProt Q92784)	1.05 ± 0.069	1.03 ± 0.058
UniProt Q8WV93	0.929 ± 0.036	0.908 ± 0.053
UniProt Q8TEW0 and related entries	1.01 ± 0.024	0.942 ± 0.077
UniProt Q92900-2|Q92900	1.02 ± 0.031	1.027 ± 0.0081

Target	NP40-soluble protein abundance (concentration: 0.1mM)	NP40-soluble protein abundance (concentration: 0.5mM)
UniProt Q92738 and related entries	1.02 ± 0.13	1.02 ± 0.013
EMG1 (UniProt Q92979)	1.07 ± 0.06	1.07 ± 0.026
EDEM1 (UniProt Q92611)	1.04 ± 0.088	1 ± 0.038
UniProt Q969P0 and related entries	1 ± 0.072	1.02 ± 0.035
ZCRB1 (UniProt Q8TBF4)	1.06 ± 0.084	0.979 ± 0.13
LPP (UniProt Q93052)	1.01 ± 0.059	0.981 ± 0.081
UniProt Q96B97 and related entries	0.992 ± 0.025	0.999 ± 0.059
UniProt Q96B96 and related entries	0.932 ± 0.031	0.887 ± 0.062
ZNF622 (UniProt Q969S3)	1.02 ± 0.035	1.06 ± 0.051
COG1 (UniProt Q8WTW3)	1.05 ± 0.048	0.951 ± 0.058
RAB24 (UniProt Q969Q5)	1.07 ± 0.071	1.07 ± 0.062
BAD (UniProt Q92934)	0.908 ± 0.1	0.88 ± 0.17
UniProt Q96AG3 and related entries	1.06 ± 0.15	0.942 ± 0.04
GGH (UniProt Q92820)	0.974 ± 0.023	0.986 ± 0.037
UniProt Q92688 and related entries	0.836 ± 0.095	0.782 ± 0.12
UniProt Q93084-2	1.03 ± 0.037	1.03 ± 0.025
UniProt Q8TE04 and related entries	1.09 ± 0.053	1.12 ± 0.058
NANP (UniProt Q8TBE9)	1.08 ± 0.045	1.04 ± 0.037
UniProt Q92974 and related entries	0.992 ± 0.037	1.01 ± 0.045
ZKSCAN4 (UniProt Q969J2)	0.995 ± 0.068	0.897 ± 0.07
STYX (UniProt Q8WUJ0)	1.01 ± 0.079	1.11 ± 0.12
SMARCC1 (UniProt Q92922)	0.965 ± 0.047	1.05 ± 0.1
PPP1R13L (UniProt Q8WUF5)	1.02 ± 0.077	1.04 ± 0.042
MRPL24 (UniProt Q96A35)	0.98 ± 0.096	0.994 ± 0.092
JADE3 (UniProt Q92613)	1.05 ± 0.013	1.139 ± 0.0024
STT3B (UniProt Q8TCJ2)	1.01 ± 0.014	1.01 ± 0.04
UniProt Q96AC1 and related entries	1.03 ± 0.063	1.05 ± 0.044

Record cards (already shown):
RAB24 (UniProt Q969Q5) in the list: NP40-soluble protein abundance (concentration: 0.1mM): 1.07 ± 0.071; NP40-soluble protein abundance (concentration: 0.5mM): 1.07 ± 0.062
MRPL24 (UniProt Q96A35) in the list: NP40-soluble protein abundance (concentration: 0.1mM): 0.98 ± 0.096; NP40-soluble protein abundance (concentration: 0.5mM): 0.994 ± 0.092

Additional records follow:

Target	NP40-soluble protein abundance (concentration: 0.1mM)	NP40-soluble protein abundance (concentration: 0.5mM)
MUL1 (UniProt Q969V5)	0.992 ± 0.02	1.01 ± 0.055
ISG20 (UniProt Q96AZ6)	1.18 ± 0.18	1.16 ± 0.11
UniProt Q8WVT3	0.979 ± 0.023	0.94 ± 0.029
UniProt Q8TBF2-6|A0A0A0MT35|Q8TBF2-8	1 ± 0.033	1.02 ± 0.1
TOPBP1 (UniProt Q92547)	1.06 ± 0.029	1.08 ± 0.049
NUP210 (UniProt Q8TEM1)	1.01 ± 0.037	1.04 ± 0.024
KBTBD7 (UniProt Q8WVZ9)	1.06 ± 0.059	1.07 ± 0.025
UniProt Q92615	1.01 ± 0.068	1.06 ± 0.052
UniProt Q8TCC3 and related entries	0.851 ± 0.18	0.92 ± 0.19
UniProt Q92989 and related entries	1.03 ± 0.065	1.07 ± 0.023
LRRC59 (UniProt Q96AG4)	0.9497 ± 0.009	0.963 ± 0.024
PPIL4 (UniProt Q8WUA2)	0.975 ± 0.04	1 ± 0.065
SLC44A1 (UniProt Q8WWI5)	1.006 ± 0.0087	0.961 ± 0.024
CHMP7 (UniProt Q8WUX9)	1.003 ± 0.0066	0.991 ± 0.063
UniProt Q8TEL6 and related entries	1.01 ± 0.093	1.11 ± 0.097
SCFD1 (UniProt Q8WVM8)	1.04 ± 0.047	1.04 ± 0.051
PMM1 (UniProt Q92871)	0.983 ± 0.048	1.01 ± 0.06
AIDA (UniProt Q96BJ3)	1.01 ± 0.048	1.02 ± 0.049
UniProt Q8TF01	1.11 ± 0.043	1.28 ± 0.069
UniProt Q8TBZ6	1.008 ± 0.01	1.09 ± 0.052
PNPT1 (UniProt Q8TCS8)	1.03 ± 0.059	1.02 ± 0.036
ZNF384 (UniProt Q8TF68)	1.04 ± 0.11	1.06 ± 0.045
TGFBRAP1 (UniProt Q8WUH2)	1.05 ± 0.047	1.03 ± 0.041
UniProt Q96BD8	0.921 ± 0.056	0.911 ± 0.078

Retrieved one by one from above (4):
Target	NP40-soluble protein abundance (concentration: 0.1mM)	NP40-soluble protein abundance (concentration: 0.5mM)
UniProt Q92989 and related entries	1.03 ± 0.065	1.07 ± 0.023
AIDA (UniProt Q96BJ3)	1.01 ± 0.048	1.02 ± 0.049
ZNF384 (UniProt Q8TF68)	1.04 ± 0.11	1.06 ± 0.045
UniProt Q8TF01	1.11 ± 0.043	1.28 ± 0.069
